Values from PubChem BioAssay AID1259308 (NCATS, 2017).

Assay: 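Genes whose loss raises luciferase production in HEK293 cells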 (primary screen)
Cells: human HEK293 embryonic kidney cells stably expressing firefly luciferase (HEK-CMV-Luc2-Hygro)
Knock-down reagent: single siRNA against human genes, 0.8 pmol siRNA per well
Duration: 72 h
Detection: 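Reporter luminescence and viable-cell signal on separate replicate plates, given as percent of non-targeting control and median/MAD z-scores, plus per-cell luciferase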
Scale: total luciferase, z-score and total luciferase, % of control: higher = more reporter protein produced; luciferase per cell, z-score: higher = more reporter output per viable cell; viable cells, % of control: higher = more viable cells
Call rule: 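An siRNA counts as active if its total luciferase robust z-score exceeds 3; genes with two or more such siRNAs out of three were retested with fresh siRNAs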
Meaning of the calls: active = raised luciferase; inactive = no rise
In all, the deposit lists about 59,000 reagents; below is a random part of them. Of all reagents, about 1,510 (2.6%) are marked active. 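Calls use total luciferase alone and ignore viability, so some active siRNAs may act by altering cell number.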 Reagents against one gene are numbered here.

gene,reagent,"total luciferase, z-score","total luciferase, % of control","luciferase per cell, z-score","viable cells, % of control",outcome
SGSH,1,-0.282,76.3,-0.534,98.1,inactive
SGSH,2,1.41,110,1.06,93.1,inactive
SGSH,3,-0.545,71.1,-0.875,100,inactive
TRIM69,1,-0.23,77.3,-0.368,95.2,inactive
TRIM69,2,-0.835,65.3,-0.227,77.4,inactive
TRIM69,3,-0.762,66.7,-0.469,84.4,inactive
CRBN,1,0.331,88.5,0.0181,98.4,inactive
CRBN,2,-1.89,44.3,-2.69,101,inactive
CRBN,3,-0.797,66,-0.992,95.8,inactive
SKAP1,1,0.825,98.3,1.43,75.4,inactive
SKAP1,2,-0.513,71.7,-0.605,94,inactive
SKAP1,3,-0.0447,81,-0.709,109,inactive
AATF,1,-0.988,62.2,-0.691,83.4,inactive
AATF,2,-1.15,59.1,-0.511,75.5,inactive
AATF,3,-0.212,77.7,0.137,83.7,inactive
ASPA,1,-0.175,78.4,-0.764,107,inactive
ASPA,2,-1.06,60.8,-1.3,95.5,inactive
ASPA,3,-0.369,74.6,-0.265,89.3,inactive
SCN1B,1,-0.734,67.3,-0.713,90.7,inactive
SCN1B,2,-0.57,70.6,-0.707,95,inactive
SCN1B,3,1.27,107,1.53,80,inactive
YOD1,1,-0.514,71.7,-0.779,98.3,inactive
YOD1,2,0.442,90.7,-0.0554,103,inactive
YOD1,3,1.79,117,1.53,87.7,inactive
TUBA3C-DT,1,-1.53,51.5,-0.00422,57.6,inactive
TUBA3C-DT,2,0.08,83.5,0.291,86.4,inactive
TUBA3C-DT,3,-1.6,50,-0.169,58.4,inactive
COG1,1,-2.26,36.9,-1.75,65.4,inactive
COG1,2,1.26,107,2.21,66.8,inactive
COG1,3,0.353,88.9,-0.0416,100,inactive
MCM9,1,0.0536,83,0.000772,92.7,inactive
MCM9,2,-1.31,55.8,-0.92,79.5,inactive
MCM9,3,-0.287,76.2,-0.309,92.3,inactive
RND3,1,0.648,94.8,1.64,68.7,inactive
RND3,2,-0.479,72.4,-0.654,96.1,inactive
RND3,3,-0.522,71.5,-0.538,92.1,inactive

Entries listed so far whose target name begins with Y or y:
gene,reagent,"total luciferase, z-score","total luciferase, % of control","luciferase per cell, z-score","viable cells, % of control",outcome
YOD1,1,-0.514,71.7,-0.779,98.3,inactive
YOD1,2,0.442,90.7,-0.0554,103,inactive
YOD1,3,1.79,117,1.53,87.7,inactive

Further entries:
gene,reagent,"total luciferase, z-score","total luciferase, % of control","luciferase per cell, z-score","viable cells, % of control",outcome
ZNF706,1,-0.28,76.3,2.43,45,inactive
ZNF706,2,2.93,140,2.24,86.9,inactive
ZNF706,3,-0.0874,80.1,-0.205,94.5,inactive
LRP5L,1,-0.601,69.9,0.899,61.7,inactive
LRP5L,2,-0.13,79.3,-0.379,97.9,inactive
LRP5L,3,-0.15,78.9,0.169,84.3,inactive
PCDHA12,1,-1.44,53.3,-1.36,85.1,inactive
PCDHA12,2,-0.605,69.8,-1.12,105,inactive
PCDHA12,3,-1.42,53.5,-1.07,79.3,inactive
ASB11,1,2.59,133,2.24,82.8,inactive
ASB11,2,-0.794,66.1,-0.298,79.9,inactive
ASB11,3,-1.02,61.6,-0.91,87.5,inactive
KRTAP13-4,1,1.78,117,2.41,69.5,inactive
KRTAP13-4,2,1.67,115,2.69,63.4,inactive
KRTAP13-4,3,0.0139,82.2,0.265,85.6,inactive
COX17,1,-0.785,66.3,-0.386,82,inactive
COX17,2,-1.03,61.5,-0.429,76.9,inactive
COX17,3,-0.322,75.5,-1.04,111,inactive
DNAH3,1,1.31,108,0.932,94.4,inactive
DNAH3,2,-1.47,52.7,-1.57,89,inactive
DNAH3,3,-0.139,79.1,-0.0689,90,inactive
TRIL,1,-0.652,68.9,-0.744,93.7,inactive
TRIL,2,2.86,139,2.43,81.7,inactive
TRIL,3,-0.432,73.3,-1.22,113,inactive
CTBP1,1,3.24,146,2.75,79.3,active
CTBP1,2,0.0289,82.5,0.106,89.6,inactive
CTBP1,3,2.59,133,1.72,94.7,inactive
GLIS3,1,-1.34,55.3,0.596,52.8,inactive
GLIS3,2,0.0538,83,-0.213,98,inactive
GLIS3,3,-0.755,66.9,-1.29,105,inactive
BHLHE41,1,-0.517,71.6,-0.602,93.8,inactive
BHLHE41,2,-0.296,76,-1.01,111,inactive
BHLHE41,3,0.337,88.6,0.219,93.4,inactive
ECRG4,1,-0.78,66.4,-0.819,92,inactive
ECRG4,2,0.846,98.7,0.431,98.5,inactive
ECRG4,3,-0.774,66.5,-1.48,110,inactive
VPS52,1,-1.13,59.4,-0.408,73.9,inactive
VPS52,2,1.19,105,0.774,96.2,inactive
VPS52,3,0.685,95.5,-0.357,117,inactive
